The assay has as its target Snt1-Myc fusion protein (S. pombe) (UniProt Q10369). The experiment in a line: co-IP; S. pombe cells expressing both tagged proteins, lysed under native conditions (1% IGEPAL CA630, 150 mM NaCl, 50 mM Tris-HCl pH 8.0); anti-Myc immunoprecipitation on Protein G Dynabeads, immunoblot with anti-HA (per results and legend). On the technique in general: In western blotting, separated proteins are transferred to a membrane and probed.

By UniProt entry, the sequences of proteins in these tests, tags left out. Where a name states a change or a piece, a line headed by the entry shows the natural chain unless it says otherwise.
UniProt Q10369: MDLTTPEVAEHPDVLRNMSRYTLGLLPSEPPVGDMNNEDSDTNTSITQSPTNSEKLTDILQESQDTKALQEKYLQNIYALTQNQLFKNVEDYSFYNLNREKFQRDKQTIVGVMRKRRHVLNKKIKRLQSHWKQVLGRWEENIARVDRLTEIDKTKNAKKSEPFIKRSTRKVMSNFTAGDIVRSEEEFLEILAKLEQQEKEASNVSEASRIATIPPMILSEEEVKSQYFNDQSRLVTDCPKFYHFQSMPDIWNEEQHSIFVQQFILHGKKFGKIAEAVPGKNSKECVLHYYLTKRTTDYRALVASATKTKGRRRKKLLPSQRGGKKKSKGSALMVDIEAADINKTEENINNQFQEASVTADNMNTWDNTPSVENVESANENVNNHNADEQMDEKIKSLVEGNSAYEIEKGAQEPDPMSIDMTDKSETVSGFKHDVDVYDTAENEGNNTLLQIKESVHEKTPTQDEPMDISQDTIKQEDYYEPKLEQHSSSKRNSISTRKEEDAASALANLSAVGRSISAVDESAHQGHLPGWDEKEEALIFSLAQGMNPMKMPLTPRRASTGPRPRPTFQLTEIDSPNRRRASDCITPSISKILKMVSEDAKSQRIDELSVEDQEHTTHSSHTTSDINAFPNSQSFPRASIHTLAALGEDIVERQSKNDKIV

No constants are given. Whether binding was seen depends on the method and setting. Binding seen in cells or lysates may run through a third protein. Binding can be weak; no strength is given. Sequences can lack the tags named with a protein.

B1: Set3-HA fusion protein (protein, UniProt Q10362 1-859)
chain: MWKIRCVCPFEDDDGFTIQCESCEVWQHAVCVNIDANNVPEKYFCEQCQPRPIDADKAHKIQLARLQREEEQSRILSRSRSSNNKRRTSFGKNGASPTHSASPRQGNNTGANGALFSQSTNSSNSGSYRNSVTGATLPNAHAPHSQNRRRRSNHLNNPPEAPITEASNEYVYSFHLEYVPLESNTFSASALEYSKNLDLKNLDESEVLMDGCQVVPISSSKFCCSRFGLVSTCEIPPNTPIMEVKGRVCTQNEYKSDPKNQYNILGAPKPHVFFDSNSQLVVDSRVAGSKARFARKGCQSNSVVSSVYMNGSNSVPRFILYSTTHIAPETEIIGDWTLDISHPFRQFAPGMSRPSFNMEELELLSEVLSTFLSFNECASQDKKNCVFSRVTKYIKAARRASTANRVSVAKDRLSLTPSSTPSTPSPAESLPQPSNPTSVYAKSLKEFWLDKYRLSILQKWPAVKSLPTESVGIDVVMEPKLQPSVKEKKPTKDLQSPLPSVEEDSSNRDKKTDIADLHTDSKVGIADVLSPISPDAALQSDGPLKKAKEPEESSITPTTPPSFNVGESLSRRSASPLQHPRTSPDMLDKTSPCKRGLGTITTVHKKHGSVDHLPSVKRRRSIANDFHGKPDYNKRSLSIERKPEAFKTKGDRPHKVHPSFHRNSDSKLKLEPSSKEKSGSMFFNTLRTVKDKSHVHDTQRSSDVNFSRQNGTRSHSPSVSPVGFSFDKSPVTTPPLPTAPAPVITSRHALVNNQFPTNNPNILDHKANNGDDISNALNTSRSENKPNSNLVQGSVVKPSNTSASALPTSAPKKLSLSEYRQRRQQNILHQQSKDNQAHGDTARPHTVPAATVSNPSFTR
For the molecule B1, the binding entry was “binds”.

B2: Hif2-HA fusion protein (protein, UniProt O74845 1-564)
chain: MDTNQVNYIIWRYLKECGYSHTKFAFERETGIQNLDKQWGSTCQVGALVEILQKGLQYVELEKHYVDNHSSNEEASKTSIDGESLVNENPCKLPFYLTVPHICETTLTKADSTNGFCEHNNSNDHQLKILQDKGSGSPSSPVMPFKDKIEKRDIDITMADESNVEKDPARPIAVYNSSPVTEITEIKQVTFTGGEDIKSDFFKVIPTKHPVTCADWRPLLQENYHVYEFSIGMTNATLASVSICEEQNDFKAKTDYCLQSSFDNQDITGVAWNNSGSFLAYAFFSGVIEIYDSHGSQILSFHNNKGPVLSLKWSGTDTYLAAGSADGTITLFDQLKQTQYSIDTLASSVLDIEWISFDEFVTSDVEGSLRVYKVDGKAPVSTVSHAHDNSIVALRYNLRISLLLTASSDTTVKLWSRGDAGAFECLHVFSFSSPVNCIDWNLREGTPILAVASNSIVSMYNAISLQQLAVFMRHTAPVSALSFSHNGRYLATGDTSGGVCIWSCKTAKLFKELGSDNSELIAVTNVLPEEQVNFLRWSFDDKDLLIGKQKKEIICCCDFLHDSL
In the case of B2, the binding result is “binds”.

For the origin of these results see paper PMC3275627.
